From PMC5112875
These are yes or no findings as the source states them, for the method shown. In cells and extracts the contact can be indirect. Some results given as binding are weak or reduced against the parent protein; the word gives no strength.

The chains behind the UniProt entries cited, without tags or fusion partners. Where a name states a change or a piece, a line headed by the entry shows the natural chain unless it says otherwise. Residues count along the entry.
UniProt Q8R493, residues 21-495: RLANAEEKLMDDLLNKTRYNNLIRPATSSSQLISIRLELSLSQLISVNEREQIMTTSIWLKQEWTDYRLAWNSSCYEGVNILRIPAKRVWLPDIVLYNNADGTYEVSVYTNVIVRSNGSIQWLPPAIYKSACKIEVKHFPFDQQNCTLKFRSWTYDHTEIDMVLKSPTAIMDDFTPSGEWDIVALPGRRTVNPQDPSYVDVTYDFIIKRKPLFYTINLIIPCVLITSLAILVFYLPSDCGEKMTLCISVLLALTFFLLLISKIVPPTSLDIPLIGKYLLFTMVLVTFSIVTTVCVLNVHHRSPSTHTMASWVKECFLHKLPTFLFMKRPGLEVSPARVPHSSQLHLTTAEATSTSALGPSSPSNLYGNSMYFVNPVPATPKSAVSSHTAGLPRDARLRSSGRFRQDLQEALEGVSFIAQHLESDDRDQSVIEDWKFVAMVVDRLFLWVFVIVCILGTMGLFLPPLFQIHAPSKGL
UniProt O70174, residues 31-629: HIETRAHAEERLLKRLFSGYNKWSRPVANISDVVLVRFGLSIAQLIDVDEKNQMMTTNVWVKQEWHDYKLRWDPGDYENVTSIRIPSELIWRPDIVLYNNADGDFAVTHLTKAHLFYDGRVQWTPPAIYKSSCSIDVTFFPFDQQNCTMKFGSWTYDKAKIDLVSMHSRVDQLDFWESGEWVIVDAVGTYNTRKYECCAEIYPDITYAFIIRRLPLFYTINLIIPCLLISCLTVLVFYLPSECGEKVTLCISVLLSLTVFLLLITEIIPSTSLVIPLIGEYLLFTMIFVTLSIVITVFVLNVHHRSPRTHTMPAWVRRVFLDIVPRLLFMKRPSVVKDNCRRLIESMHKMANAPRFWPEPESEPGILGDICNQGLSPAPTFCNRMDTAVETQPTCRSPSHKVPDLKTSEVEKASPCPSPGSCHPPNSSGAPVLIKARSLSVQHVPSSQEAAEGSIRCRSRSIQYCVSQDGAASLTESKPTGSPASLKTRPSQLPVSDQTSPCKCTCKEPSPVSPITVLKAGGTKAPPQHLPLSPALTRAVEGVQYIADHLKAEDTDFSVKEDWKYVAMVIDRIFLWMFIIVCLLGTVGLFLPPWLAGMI
UniProt Q8R4G9, residues 26-499: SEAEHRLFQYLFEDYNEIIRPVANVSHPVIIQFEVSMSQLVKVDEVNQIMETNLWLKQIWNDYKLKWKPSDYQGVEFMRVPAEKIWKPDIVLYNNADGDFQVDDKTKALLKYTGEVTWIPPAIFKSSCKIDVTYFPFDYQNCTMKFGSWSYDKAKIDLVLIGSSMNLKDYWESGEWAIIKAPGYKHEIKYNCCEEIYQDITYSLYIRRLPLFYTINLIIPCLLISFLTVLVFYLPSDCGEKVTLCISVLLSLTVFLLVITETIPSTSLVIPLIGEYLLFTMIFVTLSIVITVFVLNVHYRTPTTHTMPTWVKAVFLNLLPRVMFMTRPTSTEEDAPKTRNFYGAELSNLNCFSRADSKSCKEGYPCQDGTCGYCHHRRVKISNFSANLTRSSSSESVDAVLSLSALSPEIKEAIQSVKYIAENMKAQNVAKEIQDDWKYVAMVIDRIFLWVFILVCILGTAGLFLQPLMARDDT
UniProt Q9ERK7: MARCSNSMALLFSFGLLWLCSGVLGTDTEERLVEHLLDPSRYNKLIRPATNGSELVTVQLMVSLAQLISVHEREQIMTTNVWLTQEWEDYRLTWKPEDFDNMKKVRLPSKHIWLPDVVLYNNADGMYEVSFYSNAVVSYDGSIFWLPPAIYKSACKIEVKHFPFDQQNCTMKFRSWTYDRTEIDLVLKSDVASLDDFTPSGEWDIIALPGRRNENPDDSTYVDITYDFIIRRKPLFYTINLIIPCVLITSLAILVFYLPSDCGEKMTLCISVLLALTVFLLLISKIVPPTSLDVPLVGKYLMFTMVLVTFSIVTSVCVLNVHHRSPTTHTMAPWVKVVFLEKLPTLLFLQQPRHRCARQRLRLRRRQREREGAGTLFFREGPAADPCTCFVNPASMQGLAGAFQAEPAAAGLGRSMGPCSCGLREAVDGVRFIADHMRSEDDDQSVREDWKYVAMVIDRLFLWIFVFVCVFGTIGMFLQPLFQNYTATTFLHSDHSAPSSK

Columns and labels:
[1] = biological target: β4 nAChR subunit (mouse (endogenous in STC-1)) (UniProt Q8R493); test: co-IP; 1 mg STC-1 cell extract in modified radio-immunoprecipitation assay buffer (50 mM Tris-Cl pH 7.4, 1% Nonidet P-40, 150 mM NaCl, 1 mM EDTA) with 2 μg subunit antibody for 2 h at 4°C, Protein A/G-plus agarose overnight at 4°C; Western blot; IgG as negative control
[2] = biological target: α4 nAChR subunit (mouse (endogenous in STC-1)) (UniProt O70174); test: as above

binding [1]	binding [2]	Substance
binds		α3 nAChR subunit (from UniProt Q8R4G9 26-499) (receptor)
	binds	β2 nAChR subunit (from UniProt Q9ERK7 26-501) (receptor)
